Some of these results come from one statement about several compounds together.
Key:
Fusarium culmorum [1] = assay type: cell-based; conditions: 200 ppm; Fusarium culmorum liquid culture, growth inhibition photometrically 3-4 days after application; vs untreated control
[2] = test system: Magnaporthe grisea (Pyricularia oryzae); assay type: cell-based; conditions: 20 ppm; liquid culture, growth inhibition photometrically 3-4 days after application; vs untreated control
Fusarium culmorum [3] = assay type: in vivo, Fusarium culmorum on wheat spikelets cv. Monsun; conditions: 200 ppm; wheat spikelets, preventative, inoculated 1 day after application, assessed 6-8 days after application; vs untreated control

Structure (SMILES) | disease control (Fusarium culmorum [1]) | control of Magnaporthe grisea [2] | control of Fusarium culmorum (Fusarium culmorum [3])
O=C(Nc1cnc2c(F)cccc2c1)C(CC#CC1CC1)CC(F)(F)F (stereo not shown) [Compound E-2, 5-cyclopropyl-N-(8-fluoro-3-quinolyl)-2-(2,2,2-trifluoroethyl)pent-4-ynamide] | at least 80% | – | –
CC(CC#CC1CC1)(CC(F)(F)F)C(=O)Nc1cnc2c(F)cccc2c1 (stereo not shown) [Compound E-1, 5-cyclopropyl-N-(8-fluoro-3-quinolyl)-2-methyl-2-(2,2,2-trifluoroethyl)pent-4-ynamide] | at least 80% | – | –
CC#CCC(C)(CC(C)C)C(=O)Nc1cnc2c(F)cccc2c1 (stereo not shown) [Compound E-5, N-(8-fluoro-3-quinolyl)-2-isobutyl-2-methyl-hex-4-ynamide] | at least 80% | at least 80% | at least 80%
C#CCC(C)(CC(C)C)C(=O)Nc1cnc2c(F)cccc2c1 (stereo not shown) [Compound E-3, N-(8-fluoro-3-quinolyl)-2-isobutyl-2-methyl-pent-4-ynamide] | at least 80% | at least 80% | –
CC(C)CC(C)(CC#CC1CC1)C(=O)Nc1cnc2c(F)cccc2c1 (stereo not shown) [Compound E-4, 5-cyclopropyl-N-(8-fluoro-3-quinolyl)-2-isobutyl-2-methyl-pent-4-ynamide] | at least 80% | at least 80% | at least 80%

Source: US11241011B2, “Microbiocidal quinoline (thio)carboxamide derivatives” (SYNGENTA PARTICIPATIONS AG, priority 2017, dated 2022)
